In patent US20170089928A1 (SYSMEX, published 2017):
Results are given in words; binding and its absence hold for the method and conditions named. Some binding calls cover weakened binding; strength is not graded here.

Sequences of proteins named here, by UniProt entry; tags and fusion partners are left off. Residues count along the entry.
UniProt P02769, residues 25-607: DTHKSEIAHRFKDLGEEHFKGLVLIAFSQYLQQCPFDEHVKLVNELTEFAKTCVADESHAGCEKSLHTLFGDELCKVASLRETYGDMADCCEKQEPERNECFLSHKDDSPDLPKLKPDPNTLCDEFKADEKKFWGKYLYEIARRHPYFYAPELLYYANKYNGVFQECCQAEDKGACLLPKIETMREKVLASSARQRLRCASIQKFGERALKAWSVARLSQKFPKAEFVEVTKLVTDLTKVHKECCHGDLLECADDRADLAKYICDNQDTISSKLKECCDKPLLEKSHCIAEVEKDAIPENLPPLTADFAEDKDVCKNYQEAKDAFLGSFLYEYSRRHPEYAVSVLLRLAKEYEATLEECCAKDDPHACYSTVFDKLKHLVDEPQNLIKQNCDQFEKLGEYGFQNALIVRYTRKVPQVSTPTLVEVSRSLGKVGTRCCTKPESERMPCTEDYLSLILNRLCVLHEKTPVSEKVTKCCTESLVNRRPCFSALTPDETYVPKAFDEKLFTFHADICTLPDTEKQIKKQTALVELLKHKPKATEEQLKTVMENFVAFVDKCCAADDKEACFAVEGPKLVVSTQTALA

Assays:
[1] = target: T1, partial dynorphin A peptide consisting of amino acids of positions 1 to 13 of dynorphin A; experiment: turbidity, OD550
T1 sequence (peptide): YGGFLRRIRPKLK

[2] = target: T2, fragment of ITIH4 (positions 611 to 642); experiment: turbidity (OD550), Hill plot analysis
T2 sequence (peptide): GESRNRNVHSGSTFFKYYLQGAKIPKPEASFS

[3] = target: T1, partial dynorphin A peptide consisting of amino acids of positions 1 to 13 of dynorphin A; experiment: turbidity (OD550), Hill plot analysis
[4] = target: T3, fragment of kininogen (positions 439 to 457); experiment: turbidity (OD550), Hill plot analysis
T3 sequence (peptide): HNLGHGHKHERDQGHGHQR

Measured: binding

Heat-denatured BSA (bovine serum albumin autoclaved for 15 minutes) (from UniProt P02769 25-607)
binds: [1] | [2] | [3] | [4]
